Experimental data: PMC6073362
These are yes or no findings as the source states them, for the method shown. Sequences can lack the tags named with a protein.

Protein sequences, listed by entry. Tags and fused reporters are not part of them.
UniProt Q40636: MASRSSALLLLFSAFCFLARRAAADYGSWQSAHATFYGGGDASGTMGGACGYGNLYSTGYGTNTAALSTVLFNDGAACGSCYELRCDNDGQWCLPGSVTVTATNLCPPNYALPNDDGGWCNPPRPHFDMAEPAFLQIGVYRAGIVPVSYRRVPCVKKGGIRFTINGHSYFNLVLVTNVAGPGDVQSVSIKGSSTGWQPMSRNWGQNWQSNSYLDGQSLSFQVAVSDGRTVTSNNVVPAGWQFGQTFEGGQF
UniProt Q0DHB7: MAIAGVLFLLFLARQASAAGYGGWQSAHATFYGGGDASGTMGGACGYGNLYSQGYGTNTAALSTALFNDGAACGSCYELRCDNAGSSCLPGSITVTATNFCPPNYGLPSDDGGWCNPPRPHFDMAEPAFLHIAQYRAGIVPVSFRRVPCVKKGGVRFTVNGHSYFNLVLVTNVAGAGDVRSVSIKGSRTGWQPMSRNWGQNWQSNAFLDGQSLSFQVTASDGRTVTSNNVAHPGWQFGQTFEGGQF
UniProt Q7XT40: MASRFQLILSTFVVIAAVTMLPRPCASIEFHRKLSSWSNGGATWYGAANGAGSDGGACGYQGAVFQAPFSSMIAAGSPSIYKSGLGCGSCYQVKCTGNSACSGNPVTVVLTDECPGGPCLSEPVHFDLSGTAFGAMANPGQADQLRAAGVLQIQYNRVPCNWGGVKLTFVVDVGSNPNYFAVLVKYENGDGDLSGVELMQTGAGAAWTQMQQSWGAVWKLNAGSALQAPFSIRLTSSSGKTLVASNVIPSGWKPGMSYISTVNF
UniProt Q7XT39: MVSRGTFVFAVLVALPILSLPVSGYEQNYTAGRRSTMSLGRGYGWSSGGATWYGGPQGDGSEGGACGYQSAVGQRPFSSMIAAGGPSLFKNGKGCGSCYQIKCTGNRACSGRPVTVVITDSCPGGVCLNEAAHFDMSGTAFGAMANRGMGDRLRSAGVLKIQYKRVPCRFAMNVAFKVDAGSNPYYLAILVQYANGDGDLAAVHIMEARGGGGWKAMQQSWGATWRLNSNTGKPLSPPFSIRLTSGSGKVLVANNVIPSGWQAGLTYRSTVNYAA

Tests used:
Assay in all cases: two-hybrid; AD-GW2 (pGAD424) and BD fusions (pGBT8) co-transformed into yeast AH109; selected on -Leu/-Trp, growth tested on -Leu/-Trp/-His with 5 mM 3-AT
EXPA2 (Gal4 BD fusion) = EXPA2 (Gal4 BD fusion) (UniProt Q40636)
[1] = target: EXPA4 (Gal4 BD fusion) (rice) (UniProt Q0DHB7)
EXPB11 (Gal4 BD fusion) = target: T1, EXPB11 (Gal4 BD fusion) (UniProt Q6H676)
T1 sequence: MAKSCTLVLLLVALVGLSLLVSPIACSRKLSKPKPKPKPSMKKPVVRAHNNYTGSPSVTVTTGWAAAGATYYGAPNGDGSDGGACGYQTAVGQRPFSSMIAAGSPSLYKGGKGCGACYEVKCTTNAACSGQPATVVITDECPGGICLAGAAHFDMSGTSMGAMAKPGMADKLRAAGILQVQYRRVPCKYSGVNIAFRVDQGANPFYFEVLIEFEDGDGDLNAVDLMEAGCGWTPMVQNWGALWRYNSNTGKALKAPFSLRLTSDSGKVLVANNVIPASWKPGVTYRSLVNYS

EXPB15 (Gal4 BD fusion) = EXPB15 (Gal4 BD fusion) (UniProt Q7XT40)
EXPB5 (Gal4 BD fusion) = EXPB5 (Gal4 BD fusion) (UniProt Q7XT39)

- binding (EXPA2 (Gal4 BD fusion)): no binding
- binding [1]: no binding
- binding (EXPB11 (Gal4 BD fusion)): no binding
- binding (EXPB15 (Gal4 BD fusion)): no binding
- binding (EXPB5 (Gal4 BD fusion)): no binding
B1: AD-GW2 (enzyme, UniProt B9F4Q9 1-425)
chain: MGNRIGGRRKAGVEERYTRPQGLYEHRDIDQKKLRKLILEAKLAPCYMGADDAAAAADLEECPICFLYYPSLNRSKCCSKGICTECFLQMKPTHTAQPTQCPFCKTPSYAVEYRGVKTKEERSIEQFEEQKVIEAQMRMRQQALQDEEDKMKRKQNRCSSSRTITPTKEVEYRDICSTSFSVPSYRCAEQETECCSSEPSCSAQTSMRPFHSRHNRDDNIDMNIEDMMVMEAIWRSIQEQGSIGNPVCGNFMPVTEPSPRERQPFVPAASLEIPHGGGFSCAVAAMAEHQPPSMDFSYMAGSSAFPVFDMFRRPCNIAGGSMCNLESSPESWSGIAPSCSREVVREEGECSADHWSEGAEAGTSYAGSDIVADAGTMPQLPFAENFAMAPSHFRPESIEEQMMFSMALSLADGHGRTHSQGLAWL
